Measured values published in patent US20180187263A1, “KITS FOR DIAGNOSTIC DETECTION AND PREVENTION OF FEEDLOT BOVINE RESPIRATORY DISEASE” (Iowa State University Research Foundation, Inc., priority 2017, published 2018).

Sequences of proteins named here, by UniProt entry; tags and fusion partners are left off. A change or cut given only in a name is not applied to a line headed by its entry.
UniProt Q9TTY5: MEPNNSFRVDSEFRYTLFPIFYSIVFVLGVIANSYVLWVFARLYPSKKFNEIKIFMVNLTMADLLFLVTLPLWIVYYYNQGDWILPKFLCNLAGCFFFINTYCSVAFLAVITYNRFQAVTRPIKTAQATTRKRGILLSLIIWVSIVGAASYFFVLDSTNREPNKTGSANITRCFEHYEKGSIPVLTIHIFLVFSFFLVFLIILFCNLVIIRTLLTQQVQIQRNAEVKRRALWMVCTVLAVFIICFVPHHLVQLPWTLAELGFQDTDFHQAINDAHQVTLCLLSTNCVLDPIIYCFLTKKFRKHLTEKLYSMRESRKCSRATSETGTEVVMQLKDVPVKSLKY

Biological target: T1, Bovine PAFR (Bos taurus, UniProt Q9TTY5)
T1 construct: expressed in transfected cells; host or cells: BHK cells, transient, lipofectamine, pcDNA3.3
Test: PAF-mediated intracellular calcium accumulation in BHK cells transiently expressing bovine PAFR
Assay type: cell-based
Conditions: 10 nM PAF; antihistamines 1-100 nM

CN1CCC[C@@H]1CCO[C@](C)(c1ccccc1)c1ccc(Cl)cc1 [clemastine]
block of bovine PAFR (PAF-mediated intracellular calcium accumulation), FIG. 12: do not block
